# In patent US11046680B1, “Heteroaryl-substituted triazoles as APJ receptor agonists” (priority 2016, dated 2021):
# By UniProt entry, the sequences of proteins in these tests, tags left out.
# UniProt P35414, whole entry: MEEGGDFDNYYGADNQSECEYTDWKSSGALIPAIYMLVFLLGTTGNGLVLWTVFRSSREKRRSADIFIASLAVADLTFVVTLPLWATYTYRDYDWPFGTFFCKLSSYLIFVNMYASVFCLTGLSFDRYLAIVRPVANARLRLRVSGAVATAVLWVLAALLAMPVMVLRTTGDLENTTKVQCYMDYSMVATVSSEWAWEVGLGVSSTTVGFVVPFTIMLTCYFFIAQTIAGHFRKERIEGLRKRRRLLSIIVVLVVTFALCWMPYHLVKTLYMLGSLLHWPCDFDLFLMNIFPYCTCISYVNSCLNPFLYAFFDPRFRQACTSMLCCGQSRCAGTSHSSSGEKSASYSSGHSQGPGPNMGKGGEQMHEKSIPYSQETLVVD
# Target: human APJ receptor (Homo sapiens (Human), UniProt P35414)
# Settings: read-out: Activity hAPJ SPA EC50 IP; [35S]GTPγS binding, CHO membranes expressing human APJ receptor
compound,measurement,value
COc1cccc(OC)c1-n1c(NS(=O)(=O)C2CC(O)CN(c3ncc(F)cn3)C2)nnc1-c1nc(C)cs1 (stereo not shown),EC50,2.5 nM

# The structures given here were assigned with low confidence; some may be wrong.
